# The supplement of paper PMC12067093, “Discovery and optimisation of a covalent ligand for TRIM25 and its application to targeted protein ubiquitination” (Chemical Science, 2025)
# The chains behind the UniProt entries cited, without tags or fusion partners. Where a name states a change or a piece, a line headed by the entry shows the natural chain unless it says otherwise.
# UniProt Q9UL25: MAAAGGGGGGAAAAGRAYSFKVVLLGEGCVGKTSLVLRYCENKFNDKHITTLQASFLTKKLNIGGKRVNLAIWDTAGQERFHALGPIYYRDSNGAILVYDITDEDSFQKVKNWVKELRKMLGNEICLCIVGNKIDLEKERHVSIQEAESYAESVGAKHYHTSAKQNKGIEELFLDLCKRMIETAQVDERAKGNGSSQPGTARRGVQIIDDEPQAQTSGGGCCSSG
# UniProt Q9H0R6: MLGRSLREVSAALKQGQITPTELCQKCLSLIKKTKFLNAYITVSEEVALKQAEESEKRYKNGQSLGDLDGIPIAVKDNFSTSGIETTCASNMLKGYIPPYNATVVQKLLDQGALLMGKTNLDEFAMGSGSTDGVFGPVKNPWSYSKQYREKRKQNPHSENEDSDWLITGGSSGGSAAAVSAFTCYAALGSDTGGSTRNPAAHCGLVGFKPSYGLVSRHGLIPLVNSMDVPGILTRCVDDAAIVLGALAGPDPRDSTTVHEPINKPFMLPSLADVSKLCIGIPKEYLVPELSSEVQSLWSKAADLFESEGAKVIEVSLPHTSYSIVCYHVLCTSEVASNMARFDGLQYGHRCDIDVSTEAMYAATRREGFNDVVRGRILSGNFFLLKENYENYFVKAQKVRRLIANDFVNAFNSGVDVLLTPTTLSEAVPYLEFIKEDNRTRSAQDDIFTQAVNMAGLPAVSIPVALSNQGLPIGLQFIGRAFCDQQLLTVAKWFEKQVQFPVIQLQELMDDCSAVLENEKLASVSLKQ
# UniProt Q92878: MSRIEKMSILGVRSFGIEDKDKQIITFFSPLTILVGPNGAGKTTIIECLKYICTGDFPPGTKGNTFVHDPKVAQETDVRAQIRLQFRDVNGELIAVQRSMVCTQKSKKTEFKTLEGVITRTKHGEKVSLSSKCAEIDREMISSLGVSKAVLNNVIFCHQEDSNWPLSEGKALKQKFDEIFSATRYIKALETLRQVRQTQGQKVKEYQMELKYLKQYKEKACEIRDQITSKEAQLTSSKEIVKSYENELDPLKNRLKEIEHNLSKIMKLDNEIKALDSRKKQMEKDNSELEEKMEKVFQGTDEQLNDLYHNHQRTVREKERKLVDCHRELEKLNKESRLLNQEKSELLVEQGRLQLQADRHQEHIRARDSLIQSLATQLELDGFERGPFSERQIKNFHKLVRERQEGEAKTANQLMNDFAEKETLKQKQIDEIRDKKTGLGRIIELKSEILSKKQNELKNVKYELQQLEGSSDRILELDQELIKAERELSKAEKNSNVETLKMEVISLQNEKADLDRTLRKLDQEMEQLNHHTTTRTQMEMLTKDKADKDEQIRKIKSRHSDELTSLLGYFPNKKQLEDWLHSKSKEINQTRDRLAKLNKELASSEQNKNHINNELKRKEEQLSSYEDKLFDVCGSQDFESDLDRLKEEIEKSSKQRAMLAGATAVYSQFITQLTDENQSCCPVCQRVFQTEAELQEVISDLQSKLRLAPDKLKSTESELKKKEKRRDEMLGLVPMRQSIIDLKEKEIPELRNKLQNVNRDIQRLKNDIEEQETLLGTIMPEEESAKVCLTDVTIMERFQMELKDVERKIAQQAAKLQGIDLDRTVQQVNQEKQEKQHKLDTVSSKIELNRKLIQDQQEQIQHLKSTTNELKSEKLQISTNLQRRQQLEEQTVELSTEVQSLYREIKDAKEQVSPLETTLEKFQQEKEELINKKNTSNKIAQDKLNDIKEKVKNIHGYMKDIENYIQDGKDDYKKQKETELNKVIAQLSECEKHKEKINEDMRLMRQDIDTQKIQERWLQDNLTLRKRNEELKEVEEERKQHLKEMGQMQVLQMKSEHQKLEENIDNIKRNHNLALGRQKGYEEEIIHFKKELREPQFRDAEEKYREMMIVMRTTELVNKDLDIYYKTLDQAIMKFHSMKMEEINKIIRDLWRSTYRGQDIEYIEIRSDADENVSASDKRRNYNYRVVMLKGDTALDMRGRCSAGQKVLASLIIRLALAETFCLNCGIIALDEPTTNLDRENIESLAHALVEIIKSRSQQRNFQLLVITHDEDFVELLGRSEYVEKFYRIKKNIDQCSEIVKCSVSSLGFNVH
# UniProt P20338: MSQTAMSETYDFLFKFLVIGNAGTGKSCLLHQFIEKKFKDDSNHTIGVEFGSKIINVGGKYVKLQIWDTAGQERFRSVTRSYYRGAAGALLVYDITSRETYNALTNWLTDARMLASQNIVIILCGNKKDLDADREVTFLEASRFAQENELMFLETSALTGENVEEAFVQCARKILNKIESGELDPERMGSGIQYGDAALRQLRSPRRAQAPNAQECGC
# UniProt P49023, whole entry, looked up: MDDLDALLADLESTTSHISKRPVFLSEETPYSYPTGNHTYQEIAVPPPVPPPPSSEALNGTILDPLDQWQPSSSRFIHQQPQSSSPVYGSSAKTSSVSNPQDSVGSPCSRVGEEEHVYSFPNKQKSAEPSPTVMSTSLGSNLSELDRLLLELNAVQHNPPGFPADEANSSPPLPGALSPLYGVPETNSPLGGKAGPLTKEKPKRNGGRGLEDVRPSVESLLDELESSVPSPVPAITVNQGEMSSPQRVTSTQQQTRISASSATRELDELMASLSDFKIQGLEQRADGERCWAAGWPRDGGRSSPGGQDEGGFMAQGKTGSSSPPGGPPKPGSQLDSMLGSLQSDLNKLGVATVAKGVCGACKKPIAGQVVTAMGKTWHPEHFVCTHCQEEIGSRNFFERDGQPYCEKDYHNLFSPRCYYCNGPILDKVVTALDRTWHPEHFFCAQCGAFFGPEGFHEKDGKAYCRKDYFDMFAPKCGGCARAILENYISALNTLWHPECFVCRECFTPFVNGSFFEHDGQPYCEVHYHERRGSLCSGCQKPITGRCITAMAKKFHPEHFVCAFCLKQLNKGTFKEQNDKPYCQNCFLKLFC
# UniProt P11216: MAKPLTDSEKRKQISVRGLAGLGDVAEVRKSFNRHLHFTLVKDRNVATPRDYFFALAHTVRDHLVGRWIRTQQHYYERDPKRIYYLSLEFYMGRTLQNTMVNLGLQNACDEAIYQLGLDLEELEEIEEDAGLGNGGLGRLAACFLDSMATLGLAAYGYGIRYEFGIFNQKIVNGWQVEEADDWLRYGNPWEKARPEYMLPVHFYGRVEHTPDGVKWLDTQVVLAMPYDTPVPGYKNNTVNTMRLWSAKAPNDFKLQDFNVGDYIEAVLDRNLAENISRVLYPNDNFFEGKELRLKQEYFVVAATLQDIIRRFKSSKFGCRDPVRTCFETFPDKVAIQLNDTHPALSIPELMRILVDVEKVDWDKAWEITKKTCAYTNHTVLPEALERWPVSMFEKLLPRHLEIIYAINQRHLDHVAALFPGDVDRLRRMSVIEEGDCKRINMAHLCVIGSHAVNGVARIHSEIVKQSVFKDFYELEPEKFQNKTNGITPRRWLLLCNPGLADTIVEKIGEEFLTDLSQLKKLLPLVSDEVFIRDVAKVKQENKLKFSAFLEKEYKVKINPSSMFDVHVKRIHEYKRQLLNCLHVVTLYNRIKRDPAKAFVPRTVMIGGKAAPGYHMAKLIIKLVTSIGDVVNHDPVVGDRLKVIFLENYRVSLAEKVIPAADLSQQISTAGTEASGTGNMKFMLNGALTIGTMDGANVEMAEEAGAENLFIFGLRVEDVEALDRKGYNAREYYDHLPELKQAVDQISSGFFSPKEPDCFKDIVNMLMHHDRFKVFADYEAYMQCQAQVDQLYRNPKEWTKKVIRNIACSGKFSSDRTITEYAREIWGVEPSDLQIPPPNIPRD
# UniProt Q96C36: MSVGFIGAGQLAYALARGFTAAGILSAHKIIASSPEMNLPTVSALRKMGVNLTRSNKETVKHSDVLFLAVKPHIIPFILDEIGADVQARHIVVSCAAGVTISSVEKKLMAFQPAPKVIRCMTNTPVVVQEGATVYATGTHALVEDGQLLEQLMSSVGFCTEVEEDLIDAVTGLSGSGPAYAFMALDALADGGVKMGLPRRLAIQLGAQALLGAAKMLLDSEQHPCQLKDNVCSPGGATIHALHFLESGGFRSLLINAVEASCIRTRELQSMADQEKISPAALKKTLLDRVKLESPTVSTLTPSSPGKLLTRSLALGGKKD
# UniProt P61006: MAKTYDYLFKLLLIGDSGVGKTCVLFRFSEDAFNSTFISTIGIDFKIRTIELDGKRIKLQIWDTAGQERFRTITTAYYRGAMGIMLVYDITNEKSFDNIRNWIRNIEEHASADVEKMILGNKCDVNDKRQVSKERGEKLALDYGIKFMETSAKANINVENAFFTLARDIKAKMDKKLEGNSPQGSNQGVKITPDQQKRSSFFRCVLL
# UniProt Q9UJ41, whole entry, looked up: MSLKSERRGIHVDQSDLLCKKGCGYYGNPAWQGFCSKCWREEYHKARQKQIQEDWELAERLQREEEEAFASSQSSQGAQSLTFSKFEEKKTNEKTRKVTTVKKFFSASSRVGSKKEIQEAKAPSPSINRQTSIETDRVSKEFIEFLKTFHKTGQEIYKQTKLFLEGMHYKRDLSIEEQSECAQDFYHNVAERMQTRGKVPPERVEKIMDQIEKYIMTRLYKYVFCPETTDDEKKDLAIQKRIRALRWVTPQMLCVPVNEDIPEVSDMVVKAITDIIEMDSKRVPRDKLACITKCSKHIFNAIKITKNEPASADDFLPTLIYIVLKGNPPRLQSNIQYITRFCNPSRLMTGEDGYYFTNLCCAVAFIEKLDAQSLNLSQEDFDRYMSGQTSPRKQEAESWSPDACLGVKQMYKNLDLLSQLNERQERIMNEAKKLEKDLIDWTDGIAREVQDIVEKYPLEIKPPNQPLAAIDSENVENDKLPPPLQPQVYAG
# UniProt Q9BXR0: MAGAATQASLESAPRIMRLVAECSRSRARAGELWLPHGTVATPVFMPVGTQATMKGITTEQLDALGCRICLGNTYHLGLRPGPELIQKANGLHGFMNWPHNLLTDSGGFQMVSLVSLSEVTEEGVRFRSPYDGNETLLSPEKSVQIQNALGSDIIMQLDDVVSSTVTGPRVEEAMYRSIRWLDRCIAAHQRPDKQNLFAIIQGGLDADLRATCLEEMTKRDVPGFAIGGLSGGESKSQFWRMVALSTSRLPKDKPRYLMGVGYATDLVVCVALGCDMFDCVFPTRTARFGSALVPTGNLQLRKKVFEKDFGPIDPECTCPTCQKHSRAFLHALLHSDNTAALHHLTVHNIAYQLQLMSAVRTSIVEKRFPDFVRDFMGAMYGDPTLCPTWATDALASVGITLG
# UniProt Q9NP72: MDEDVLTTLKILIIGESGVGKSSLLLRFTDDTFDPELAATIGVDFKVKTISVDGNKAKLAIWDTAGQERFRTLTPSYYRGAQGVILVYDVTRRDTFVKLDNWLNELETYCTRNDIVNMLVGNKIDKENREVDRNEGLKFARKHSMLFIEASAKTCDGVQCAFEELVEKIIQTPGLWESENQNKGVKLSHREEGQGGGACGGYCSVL
# UniProt Q9Y3P9: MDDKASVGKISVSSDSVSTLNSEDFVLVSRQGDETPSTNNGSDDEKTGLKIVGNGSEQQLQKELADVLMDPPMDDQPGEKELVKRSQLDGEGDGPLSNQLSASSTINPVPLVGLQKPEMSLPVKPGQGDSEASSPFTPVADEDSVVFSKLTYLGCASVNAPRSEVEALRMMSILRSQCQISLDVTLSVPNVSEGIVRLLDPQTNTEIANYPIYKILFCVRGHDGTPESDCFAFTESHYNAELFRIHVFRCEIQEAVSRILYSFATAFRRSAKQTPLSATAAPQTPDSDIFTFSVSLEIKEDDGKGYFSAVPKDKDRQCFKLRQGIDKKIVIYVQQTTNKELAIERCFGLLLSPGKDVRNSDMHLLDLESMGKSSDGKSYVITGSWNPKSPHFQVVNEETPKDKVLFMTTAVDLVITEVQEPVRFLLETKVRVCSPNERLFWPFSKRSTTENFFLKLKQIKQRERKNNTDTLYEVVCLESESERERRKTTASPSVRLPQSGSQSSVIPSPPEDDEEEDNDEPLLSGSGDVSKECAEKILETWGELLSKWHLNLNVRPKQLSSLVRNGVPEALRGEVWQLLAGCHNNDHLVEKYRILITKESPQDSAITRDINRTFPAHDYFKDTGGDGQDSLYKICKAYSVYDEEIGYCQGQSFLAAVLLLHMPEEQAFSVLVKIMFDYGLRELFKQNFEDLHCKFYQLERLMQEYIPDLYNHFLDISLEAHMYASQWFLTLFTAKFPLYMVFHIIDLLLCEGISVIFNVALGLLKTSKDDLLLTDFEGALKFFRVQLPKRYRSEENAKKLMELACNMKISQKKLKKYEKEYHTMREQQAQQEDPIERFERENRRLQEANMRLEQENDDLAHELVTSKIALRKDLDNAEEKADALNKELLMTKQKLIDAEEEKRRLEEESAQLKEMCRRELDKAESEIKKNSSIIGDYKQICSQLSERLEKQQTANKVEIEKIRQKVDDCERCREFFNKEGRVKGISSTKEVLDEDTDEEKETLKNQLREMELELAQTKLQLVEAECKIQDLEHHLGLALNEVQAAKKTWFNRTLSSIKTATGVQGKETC
# This is one part of the list.
# Compound: Cc1cc(ccc1-c1ccccc1)C(=O)N1CCCN(CC1)C(=O)CCl [compound 10]
# Assay: probe-labelled cysteine peptide fold change vs DMSO (competition) (log2 fold change); higher = less target engagement (more negative = stronger competition)
# Details: THP-1, incubation time: 4 h
# 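Note: competitive profiling in live THP-1 cells: cysteine peptides tagged with an iodoacetamide desthiobiotin (IA-DTB) probe, intensity after compound treatment relative to DMSO-treated cells.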
target,measurement,setting,value
RAB35_Q15286_114_WLHEINQNCDDVCR (UniProt Q15286),probe-labelled cysteine peptide fold change,10 µM,0.125
same,probe-labelled cysteine peptide fold change,50 µM,-0.186
QARS_P47897_445_WCIYPTYDYTHCLCDSIEHITHSLCTK (UniProt P47897),probe-labelled cysteine peptide fold change,10 µM,0.0467
same,probe-labelled cysteine peptide fold change,50 µM,0.0154
RAB21_Q9UL25_29_VVLLGEGCVGK (UniProt Q9UL25),probe-labelled cysteine peptide fold change,10 µM,0.0214
same,probe-labelled cysteine peptide fold change,50 µM,0.285
RAB10_P61026_124_CDMDDKR (UniProt P61026),probe-labelled cysteine peptide fold change,10 µM,-0.331
same,probe-labelled cysteine peptide fold change,50 µM,-0.218
QRSL1_Q9H0R6_278_LCIGIPK (UniProt Q9H0R6),probe-labelled cysteine peptide fold change,10 µM,0.155
same,probe-labelled cysteine peptide fold change,50 µM,0.0481
PYGL_P06737_446_INMAHLCIVGSHAVNGVAK (UniProt P06737),probe-labelled cysteine peptide fold change,10 µM,0.052
same,probe-labelled cysteine peptide fold change,50 µM,0.0358
RAD50_Q92878_1296_NIDQCSEIVK (UniProt Q92878),probe-labelled cysteine peptide fold change,10 µM,-0.0684
same,probe-labelled cysteine peptide fold change,50 µM,0.076
QSOX1_O00391_512_ELCSACHNER (UniProt O00391),probe-labelled cysteine peptide fold change,10 µM,-0.11
same,probe-labelled cysteine peptide fold change,50 µM,-0.592
QSOX1_O00391_393_VNWIGCQGSEPHFR (UniProt O00391),probe-labelled cysteine peptide fold change,10 µM,0.0191
same,probe-labelled cysteine peptide fold change,50 µM,-0.114
RAB21_Q9UL25_177_GIEELFLDLCK (UniProt Q9UL25),probe-labelled cysteine peptide fold change,10 µM,0.0941
same,probe-labelled cysteine peptide fold change,50 µM,0.191
RAB3GAP1_Q15042_218_IGCPLTPLPPVSIAIR (UniProt Q15042),probe-labelled cysteine peptide fold change,10 µM,0.183
same,probe-labelled cysteine peptide fold change,50 µM,0.0775
RAB4A_P20338_124_MLASQNIVIILCGNKK (UniProt P20338),probe-labelled cysteine peptide fold change,10 µM,-0.276
same,probe-labelled cysteine peptide fold change,50 µM,-0.0683
PXK_Q7Z7A4_196_DFQCLIK (UniProt Q7Z7A4),probe-labelled cysteine peptide fold change,10 µM,0.101
same,probe-labelled cysteine peptide fold change,50 µM,-0.2
PXN_P49023_561_FHPEHFVCAFCLK (UniProt P49023),probe-labelled cysteine peptide fold change,10 µM,-0.0845
same,probe-labelled cysteine peptide fold change,50 µM,-0.0794
PYGB_P11216_446_INMAHLCVIGSHAVNGVAR (UniProt P11216),probe-labelled cysteine peptide fold change,10 µM,0.0264
same,probe-labelled cysteine peptide fold change,50 µM,0.0636
RAD50_Q92878_102_SMVCTQK (UniProt Q92878),probe-labelled cysteine peptide fold change,10 µM,0.0795
same,probe-labelled cysteine peptide fold change,50 µM,0.0477
RAB3GAP2_Q9H2M9_793_DILDKPQSICCLHTMLSLLSK (UniProt Q9H2M9),probe-labelled cysteine peptide fold change,10 µM,-0.128
same,probe-labelled cysteine peptide fold change,50 µM,-0.2
RAD23B_P54727_390_ALGFPEGLVIQAYFACEK (UniProt P54727),probe-labelled cysteine peptide fold change,10 µM,0.206
same,probe-labelled cysteine peptide fold change,50 µM,0.231
PYCR2_Q96C36_232_DNVCSPGGATIHALHFLESGGFR (UniProt Q96C36),probe-labelled cysteine peptide fold change,10 µM,0.0302
same,probe-labelled cysteine peptide fold change,50 µM,-0.123
RAB7A_P51149_143_AQAWCYSK (UniProt P51149),probe-labelled cysteine peptide fold change,10 µM,-0.153
same,probe-labelled cysteine peptide fold change,50 µM,-0.0979
RAB8A_P61006_123_CDVNDK (UniProt P61006),probe-labelled cysteine peptide fold change,10 µM,-0.202
same,probe-labelled cysteine peptide fold change,50 µM,0.0957
RABGEF1_Q9UJ41_157_GIHVDQSDLLCK (UniProt Q9UJ41),probe-labelled cysteine peptide fold change,10 µM,-0.225
same,probe-labelled cysteine peptide fold change,50 µM,-0.281
QTRT1_Q9BXR0_70_ICLGNTYHLGLRPGPELIQK (UniProt Q9BXR0),probe-labelled cysteine peptide fold change,10 µM,0.124
same,probe-labelled cysteine peptide fold change,50 µM,-0.276
RAB21_Q9UL25_128_MLGNEICLCIVGNK (UniProt Q9UL25),probe-labelled cysteine peptide fold change,10 µM,-0.0617
same,probe-labelled cysteine peptide fold change,50 µM,0.194
RAD21_O60216_35_AHVFECNLESSVESIISPK (UniProt O60216),probe-labelled cysteine peptide fold change,10 µM,0.154
same,probe-labelled cysteine peptide fold change,50 µM,0.13
RACK1_P63244_182_VWNLANCK (UniProt P63244),probe-labelled cysteine peptide fold change,10 µM,-0.00594
same,probe-labelled cysteine peptide fold change,50 µM,-0.0137
RAB18_Q9NP72_155+160_TCDGVQCAFEELVEK (UniProt Q9NP72),probe-labelled cysteine peptide fold change,10 µM,-0.245
same,probe-labelled cysteine peptide fold change,50 µM,-0.566
RABGEF1_Q9UJ41_359_DLSIEEQSECAQDFYHNVAER (UniProt Q9UJ41),probe-labelled cysteine peptide fold change,10 µM,-0.389
same,probe-labelled cysteine peptide fold change,50 µM,-0.123
RAD51B_O15315_32_HQILTCQDFLCLSPLELMK (UniProt O15315),probe-labelled cysteine peptide fold change,10 µM,-0.072
same,probe-labelled cysteine peptide fold change,50 µM,-0.135
RAB3GAP2_Q9H2M9_391_HGESICLSPCNTLAAVTDDFGR (UniProt Q9H2M9),probe-labelled cysteine peptide fold change,10 µM,-0.0337
same,probe-labelled cysteine peptide fold change,50 µM,0.162
PYGB_P11216_446_RINMAHLCVIGSHAVNGVAR (UniProt P11216),probe-labelled cysteine peptide fold change,10 µM,-0.0101
same,probe-labelled cysteine peptide fold change,50 µM,0.163
PYGL_P06737_581_QLLNCLHVITMYNR (UniProt P06737),probe-labelled cysteine peptide fold change,10 µM,0.0575
same,probe-labelled cysteine peptide fold change,50 µM,0.206
QRSL1_Q9H0R6_203_NPAAHCGLVGFK (UniProt Q9H0R6),probe-labelled cysteine peptide fold change,10 µM,0.356
same,probe-labelled cysteine peptide fold change,50 µM,0.514
QSER1_Q2KHR3_283_SCSTEQPLTSTK (UniProt Q2KHR3),probe-labelled cysteine peptide fold change,10 µM,-0.196
same,probe-labelled cysteine peptide fold change,50 µM,-0.558
PXN_P49023_505_ECFTPFVNGSFFEHDGQPYCEVHYHER (UniProt P49023),probe-labelled cysteine peptide fold change,10 µM,0.192
same,probe-labelled cysteine peptide fold change,50 µM,0.386
PXN_P49023_523_ECFTPFVNGSFFEHDGQPYCEVHYHER (UniProt P49023),probe-labelled cysteine peptide fold change,10 µM,0.032
same,probe-labelled cysteine peptide fold change,50 µM,0.12
RABGAP1_Q9Y3P9_346_CFGLLLSPGK (UniProt Q9Y3P9),probe-labelled cysteine peptide fold change,10 µM,0.0601
same,probe-labelled cysteine peptide fold change,50 µM,-0.112
QKI_Q96PU8_35_LMSSLPNFCGIFNHLER (UniProt Q96PU8),probe-labelled cysteine peptide fold change,10 µM,0.103
same,probe-labelled cysteine peptide fold change,50 µM,-0.0212
RABL6_Q3YEC7_172_VPTHVPVCVLGNYR (UniProt Q3YEC7),probe-labelled cysteine peptide fold change,10 µM,-0.0178
same,probe-labelled cysteine peptide fold change,50 µM,0.0736

# Rewritten with bars between the fields: entries from further up.
target | measurement | setting | value
RAB4A_P20338_124_MLASQNIVIILCGNKK (UniProt P20338) | probe-labelled cysteine peptide fold change | 50 µM | -0.0683
RABGAP1_Q9Y3P9_346_CFGLLLSPGK (UniProt Q9Y3P9) | probe-labelled cysteine peptide fold change | 10 µM | 0.0601

# Some of the entries above in another layout.
target	measurement	setting	value
QSOX1_O00391_393_VNWIGCQGSEPHFR (UniProt O00391)	probe-labelled cysteine peptide fold change	50 µM	-0.114
QTRT1_Q9BXR0_70_ICLGNTYHLGLRPGPELIQK (UniProt Q9BXR0)	probe-labelled cysteine peptide fold change	10 µM	0.124
RAB18_Q9NP72_155+160_TCDGVQCAFEELVEK (UniProt Q9NP72)	probe-labelled cysteine peptide fold change	10 µM	-0.245
